Chains of the proteins cited; added tags and fusions are not shown. Lines headed by an entry give the natural chain unless they say otherwise; changes in a name come on top.
UniProt P07711: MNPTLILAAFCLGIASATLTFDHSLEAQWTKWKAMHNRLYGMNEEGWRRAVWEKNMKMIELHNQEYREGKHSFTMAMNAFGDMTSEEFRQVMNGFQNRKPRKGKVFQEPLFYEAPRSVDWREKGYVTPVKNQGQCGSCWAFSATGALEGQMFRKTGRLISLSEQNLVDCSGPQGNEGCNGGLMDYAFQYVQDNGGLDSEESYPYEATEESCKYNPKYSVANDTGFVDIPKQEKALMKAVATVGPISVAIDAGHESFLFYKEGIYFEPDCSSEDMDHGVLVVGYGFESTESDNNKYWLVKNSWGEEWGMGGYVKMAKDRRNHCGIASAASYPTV
UniProt O15393: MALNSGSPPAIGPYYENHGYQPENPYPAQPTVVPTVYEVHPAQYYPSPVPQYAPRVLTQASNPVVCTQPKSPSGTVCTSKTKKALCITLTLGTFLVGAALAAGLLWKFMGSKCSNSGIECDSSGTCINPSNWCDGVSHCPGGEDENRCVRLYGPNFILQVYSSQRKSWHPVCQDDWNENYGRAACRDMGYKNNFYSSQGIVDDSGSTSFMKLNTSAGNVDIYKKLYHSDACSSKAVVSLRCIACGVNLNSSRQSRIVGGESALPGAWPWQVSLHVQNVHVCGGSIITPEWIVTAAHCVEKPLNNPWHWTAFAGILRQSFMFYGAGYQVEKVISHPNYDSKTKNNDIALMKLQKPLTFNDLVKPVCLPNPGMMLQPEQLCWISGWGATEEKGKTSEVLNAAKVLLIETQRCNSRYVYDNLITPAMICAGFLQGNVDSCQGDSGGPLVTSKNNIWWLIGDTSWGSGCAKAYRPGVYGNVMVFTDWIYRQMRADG

In article PMC8552907:

What was measured:
[1] = biological target: MAC-tagged SARS-CoV-2 NSP13 (SARS-CoV-2) (UniProt P0DTD1); experiment: affinity purification with mass spectrometry + proximity labelling
[2] = biological target: MAC-tagged SARS-CoV-2 NSP14 (SARS-CoV-2) (UniProt P0DTD1); experiment: as above
[3] = biological target: MAC-tagged SARS-CoV-2 NSP5 (SARS-CoV-2) (UniProt P0DTD1); experiment: as above
[4] = biological target: MAC-tagged SARS-CoV-2 NSP6 (SARS-CoV-2) (UniProt P0DTD1); experiment: as above
[5] = biological target: T1, MAC-tagged DNA topoisomerase III beta (TOP3B) (human) (UniProt O95985); experiment: affinity purification with mass spectrometry + proximity labelling; MAC-tagged bait in tetracycline-induced Flp-In 293 T-REx stable lines (with 50 uM biotin for 24 h for BioID); one-step purification of the lysate on Strep-Tactin Sepharose; LC-MS; high-confidence interactions at SAINTexpress BFDR <= 0.01; the text does not tell which of the two methods found each pair
T1 sequence: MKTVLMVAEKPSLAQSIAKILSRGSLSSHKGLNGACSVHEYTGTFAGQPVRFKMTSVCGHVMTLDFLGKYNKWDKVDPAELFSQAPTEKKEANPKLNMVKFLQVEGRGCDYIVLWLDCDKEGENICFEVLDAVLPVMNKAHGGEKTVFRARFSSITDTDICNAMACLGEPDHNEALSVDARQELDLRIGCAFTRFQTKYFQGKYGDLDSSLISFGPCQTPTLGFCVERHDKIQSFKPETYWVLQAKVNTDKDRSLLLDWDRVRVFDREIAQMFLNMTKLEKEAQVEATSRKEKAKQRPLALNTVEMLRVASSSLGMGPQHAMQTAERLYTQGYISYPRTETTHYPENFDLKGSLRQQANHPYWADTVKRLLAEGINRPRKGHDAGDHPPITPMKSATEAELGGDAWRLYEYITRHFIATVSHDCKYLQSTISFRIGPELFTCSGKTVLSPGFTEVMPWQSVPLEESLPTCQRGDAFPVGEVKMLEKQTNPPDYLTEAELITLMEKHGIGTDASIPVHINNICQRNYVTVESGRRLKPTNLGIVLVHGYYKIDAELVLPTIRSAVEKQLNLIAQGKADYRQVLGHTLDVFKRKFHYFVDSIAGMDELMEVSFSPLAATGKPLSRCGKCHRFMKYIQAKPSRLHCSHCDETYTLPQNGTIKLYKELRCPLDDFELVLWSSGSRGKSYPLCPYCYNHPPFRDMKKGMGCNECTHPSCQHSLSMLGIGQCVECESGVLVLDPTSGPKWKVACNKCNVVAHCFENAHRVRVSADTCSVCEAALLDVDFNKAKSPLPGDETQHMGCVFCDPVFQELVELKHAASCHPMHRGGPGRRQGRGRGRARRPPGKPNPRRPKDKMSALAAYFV

[6] = biological target: MAC-tagged cathepsin L (CTSL) (human) (UniProt P07711); experiment: as above
[7] = biological target: MAC-tagged transmembrane serine protease 2 (TMPRSS2) (human) (UniProt O15393); experiment: as above

Measured: binding

DNA topoisomerase III beta (TOP3B), endogenous prey (from UniProt O95985 1-862) (enzyme)
binds: [1] | [2]

DEAD-box (DDX) RNA helicase DDX39B, endogenous prey (from UniProt Q13838 1-428) (enzyme)
binds: all assays above

No constants are given. Whether binding was seen depends on the method and setting. Binding seen in cells or lysates may run through a third protein. A yes stands for co-enrichment or nearness to the bait. Other partners may have been found. For part of these data: Sequences can lack the tags named with a protein.
